This is one part of the list. Repeats are few or missing, and single values can be far off.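 Imaging used 1,536-well plates; nuclei positive for cleaved PARP by antibody were divided by total DNA-stained nuclei to yield the apoptosis fraction. Doses for screening kept most cells viable, and cell lines differ markedly in resting and induced cleaved-PARP levels.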
How the values were obtained:
Test in all cases: cleaved PARP positive nuclei fraction relative to DMSO control; melanoma cells; higher = more apoptosis
Details in all cases: library dose: low library concentration; 72 h
MZ2-MEL = tested on: MZ2-MEL
MeWo = tested on: MeWo
RPMI7951 = tested on: RPMI7951
RVH-421 = tested on: RVH-421
SkMel28 = tested on: SkMel28
SkMel2 = tested on: SkMel2
SkMel30 = tested on: SkMel30
UACC62 = tested on: UACC62
WM115 = tested on: WM115
WM1716 = tested on: WM1716
WM1745 = tested on: WM1745
WM3526 = tested on: WM3526
WM3619 = tested on: WM3619
WM451Lu = tested on: WM451Lu

SMILES: COc1cc([C@@H]2c3cc4c(cc3[C@@H](O[C@@H]3O[C@@H]5CO[C@@H](C)O[C@H]5[C@H](O)[C@H]3O)[C@H]3COC(=O)[C@H]23)OCO4)cc(OC)c1O [etoposide] + COCC[n+]1c2c(n(Cc3cnccn3)c1C)C(=O)c1ccccc1C2=O [YM155] (first compound 0.02 µM, partner dose 0.0004 µM)
- cleaved PARP positive nuclei fraction (MZ2-MEL): 182%
- cleaved PARP positive nuclei fraction (MeWo): 37%
- cleaved PARP positive nuclei fraction (RPMI7951): 64.3%
- cleaved PARP positive nuclei fraction (RVH-421): 89.7%
- cleaved PARP positive nuclei fraction (SkMel28): 84.5%
- cleaved PARP positive nuclei fraction (SkMel2): 80.8%
- cleaved PARP positive nuclei fraction (SkMel30): 101%
- cleaved PARP positive nuclei fraction (UACC62): 221%
- cleaved PARP positive nuclei fraction (WM115): 78.4%
- cleaved PARP positive nuclei fraction (WM1716): 149%
- cleaved PARP positive nuclei fraction (WM1745): 104%
- cleaved PARP positive nuclei fraction (WM3526): 39.5%
- cleaved PARP positive nuclei fraction (WM3619): 87.9%
- cleaved PARP positive nuclei fraction (WM451Lu): 49.8%

SMILES: Cc1cc(Nc2cc(N3CCN(C)CC3)nc(Sc3ccc(NC(=O)C4CC4)cc3)n2)n[nH]1 [Tozasertib] + COc1cc([C@@H]2c3cc4c(cc3[C@@H](O[C@@H]3O[C@@H]5CO[C@@H](C)O[C@H]5[C@H](O)[C@H]3O)[C@H]3COC(=O)[C@H]23)OCO4)cc(OC)c1O [etoposide] (first compound 0.006 µM, partner dose 0.02 µM)
- cleaved PARP positive nuclei fraction (MZ2-MEL): 33.5%
- cleaved PARP positive nuclei fraction (MeWo): 66.8%
- cleaved PARP positive nuclei fraction (RPMI7951): 33.6%
- cleaved PARP positive nuclei fraction (RVH-421): 67.3%
- cleaved PARP positive nuclei fraction (SkMel28): 28.9%
- cleaved PARP positive nuclei fraction (SkMel2): 44.6%
- cleaved PARP positive nuclei fraction (SkMel30): 178%
- cleaved PARP positive nuclei fraction (UACC62): 127%
- cleaved PARP positive nuclei fraction (WM115): 70%
- cleaved PARP positive nuclei fraction (WM1716): 187%
- cleaved PARP positive nuclei fraction (WM1745): 110%
- cleaved PARP positive nuclei fraction (WM3526): 108%
- cleaved PARP positive nuclei fraction (WM3619): 103%
- cleaved PARP positive nuclei fraction (WM451Lu): 51.9%

SMILES: CCCCCCCCCCCCCCCCCCOP(=O)([O-])OC1CC[N+](C)(C)CC1 [Perifosine] + Nc1ncn([C@H]2C[C@H](O)[C@@H](CO)O2)c(=O)n1 [decitabine] (first compound 0.4 µM, partner dose 0.1 µM)
- cleaved PARP positive nuclei fraction (MZ2-MEL): 128%
- cleaved PARP positive nuclei fraction (MeWo): 114%
- cleaved PARP positive nuclei fraction (RPMI7951): 64.4%
- cleaved PARP positive nuclei fraction (RVH-421): 66.1%
- cleaved PARP positive nuclei fraction (SkMel28): 71.9%
- cleaved PARP positive nuclei fraction (SkMel2): 78.3%
- cleaved PARP positive nuclei fraction (SkMel30): 143%
- cleaved PARP positive nuclei fraction (UACC62): 73.5%
- cleaved PARP positive nuclei fraction (WM115): 73.7%
- cleaved PARP positive nuclei fraction (WM1716): 41.5%
- cleaved PARP positive nuclei fraction (WM1745): 96.2%
- cleaved PARP positive nuclei fraction (WM3526): 81.2%
- cleaved PARP positive nuclei fraction (WM3619): 101%
- cleaved PARP positive nuclei fraction (WM451Lu): 142%

SMILES: Cc1cn(-c2cc(NC(=O)c3ccc(C)c(Nc4nccc(-c5cccnc5)n4)c3)cc(C(F)(F)F)c2)cn1 [nilotinib] + CCCCCCCCc1ccc(CCC(N)(CO)CO)cc1 [fingolimod] (first compound 0.2 µM, partner dose 2 µM)
- cleaved PARP positive nuclei fraction (MZ2-MEL): 55.6%
- cleaved PARP positive nuclei fraction (MeWo): 63.8%
- cleaved PARP positive nuclei fraction (RPMI7951): 35.9%
- cleaved PARP positive nuclei fraction (RVH-421): 142%
- cleaved PARP positive nuclei fraction (SkMel28): 197%
- cleaved PARP positive nuclei fraction (SkMel2): 101%
- cleaved PARP positive nuclei fraction (SkMel30): 50.9%
- cleaved PARP positive nuclei fraction (UACC62): 106%
- cleaved PARP positive nuclei fraction (WM115): 245%
- cleaved PARP positive nuclei fraction (WM1716): 75.8%
- cleaved PARP positive nuclei fraction (WM1745): 111%
- cleaved PARP positive nuclei fraction (WM3526): 46.9%
- cleaved PARP positive nuclei fraction (WM3619): 105%
- cleaved PARP positive nuclei fraction (WM451Lu): 37.4%

SMILES: Cc1cn(-c2cc(NC(=O)c3ccc(C)c(Nc4nccc(-c5cccnc5)n4)c3)cc(C(F)(F)F)c2)cn1 [nilotinib] + OCc1c[nH]c2ccccc12 [Indole-3-carbinol] (first compound 0.2 µM, partner dose 0.8 µM)
- cleaved PARP positive nuclei fraction (MZ2-MEL): 145%
- cleaved PARP positive nuclei fraction (MeWo): 311%
- cleaved PARP positive nuclei fraction (RPMI7951): 28.7%
- cleaved PARP positive nuclei fraction (RVH-421): 164%
- cleaved PARP positive nuclei fraction (SkMel28): 68.5%
- cleaved PARP positive nuclei fraction (SkMel2): 205%
- cleaved PARP positive nuclei fraction (SkMel30): 67.4%
- cleaved PARP positive nuclei fraction (UACC62): 254%
- cleaved PARP positive nuclei fraction (WM115): 93.7%
- cleaved PARP positive nuclei fraction (WM1716): 913%
- cleaved PARP positive nuclei fraction (WM1745): 110%
- cleaved PARP positive nuclei fraction (WM3526): 73.6%
- cleaved PARP positive nuclei fraction (WM3619): 95.6%
- cleaved PARP positive nuclei fraction (WM451Lu): 39.2%

SMILES: Cc1ccc(Nc2nccc(N(C)c3ccc4c(C)n(C)nc4c3)n2)cc1S(N)(=O)=O [Pazopanib] + Cn1cnc2c(F)c(Nc3ccc(Br)cc3Cl)c(C(=O)NOCCO)cc21 [selumetinib] (first compound 0.4 µM, partner dose 0.015 µM)
- cleaved PARP positive nuclei fraction (MZ2-MEL): 93.8%
- cleaved PARP positive nuclei fraction (MeWo): 43.3%
- cleaved PARP positive nuclei fraction (RPMI7951): 55%
- cleaved PARP positive nuclei fraction (RVH-421): 56.6%
- cleaved PARP positive nuclei fraction (SkMel28): 166%
- cleaved PARP positive nuclei fraction (SkMel2): 105%
- cleaved PARP positive nuclei fraction (SkMel30): 69.3%
- cleaved PARP positive nuclei fraction (UACC62): 149%
- cleaved PARP positive nuclei fraction (WM115): 30.4%
- cleaved PARP positive nuclei fraction (WM1716): 127%
- cleaved PARP positive nuclei fraction (WM1745): 108%
- cleaved PARP positive nuclei fraction (WM3526): 69.6%
- cleaved PARP positive nuclei fraction (WM3619): 111%
- cleaved PARP positive nuclei fraction (WM451Lu): 67.9%

SMILES: Cc1cc(Nc2cc(N3CCN(C)CC3)nc(Sc3ccc(NC(=O)C4CC4)cc3)n2)n[nH]1 [Tozasertib] + CCN(CC)CCNC(=O)c1c(C)[nH]c(/C=C2\C(=O)Nc3ccc(F)cc32)c1C [sunitinib] (first compound 0.006 µM, partner dose 0.4 µM)
- cleaved PARP positive nuclei fraction (MZ2-MEL): 98.8%
- cleaved PARP positive nuclei fraction (MeWo): 165%
- cleaved PARP positive nuclei fraction (RPMI7951): 93%
- cleaved PARP positive nuclei fraction (RVH-421): 101%
- cleaved PARP positive nuclei fraction (SkMel28): 77.6%
- cleaved PARP positive nuclei fraction (SkMel2): 18.2%
- cleaved PARP positive nuclei fraction (SkMel30): 292%
- cleaved PARP positive nuclei fraction (UACC62): 165%
- cleaved PARP positive nuclei fraction (WM115): 94.7%
- cleaved PARP positive nuclei fraction (WM1716): 43.8%
- cleaved PARP positive nuclei fraction (WM1745): 127%
- cleaved PARP positive nuclei fraction (WM3526): 42.2%
- cleaved PARP positive nuclei fraction (WM3619): 79.4%
- cleaved PARP positive nuclei fraction (WM451Lu): 90.6%

SMILES: Cc1ccc(Nc2nccc(N(C)c3ccc4c(C)n(C)nc4c3)n2)cc1S(N)(=O)=O [Pazopanib] + CC(=O)O[C@@]12CO[C@@H]1C[C@H](O)[C@@]1(C)C(=O)[C@H](O)C3=C(C)[C@@H](OC(=O)[C@H](O)[C@@H](NC(=O)OC(C)(C)C)c4ccccc4)C[C@@](O)([C@@H](OC(=O)c4ccccc4)[C@H]21)C3(C)C [Docetaxel] (first compound 0.4 µM, partner dose 0.0001 µM)
- cleaved PARP positive nuclei fraction (MZ2-MEL): 248%
- cleaved PARP positive nuclei fraction (MeWo): 423%
- cleaved PARP positive nuclei fraction (RPMI7951): 173%
- cleaved PARP positive nuclei fraction (RVH-421): 279%
- cleaved PARP positive nuclei fraction (SkMel28): 136%
- cleaved PARP positive nuclei fraction (SkMel2): 615%
- cleaved PARP positive nuclei fraction (SkMel30): 484%
- cleaved PARP positive nuclei fraction (UACC62): 417%
- cleaved PARP positive nuclei fraction (WM115): 259%
- cleaved PARP positive nuclei fraction (WM1716): 1150%
- cleaved PARP positive nuclei fraction (WM1745): 140%
- cleaved PARP positive nuclei fraction (WM3526): 87.8%
- cleaved PARP positive nuclei fraction (WM3619): 108%
- cleaved PARP positive nuclei fraction (WM451Lu): 126%

SMILES: O=c1[nH]nc(Sc2ncc([N+](=O)[O-])s2)n1-c1ccc2c(c1)OCCO2 + COc1ccc(Cl)c(Nc2nc3ccccc3nc2NS(=O)(=O)c2cccc(NC(=O)C(C)(C)N)c2)c1 [XL147] (first compound 0.2 µM, partner dose 0.8 µM)
- cleaved PARP positive nuclei fraction (MZ2-MEL): 78.8%
- cleaved PARP positive nuclei fraction (MeWo): 80.3%
- cleaved PARP positive nuclei fraction (RPMI7951): 98.1%
- cleaved PARP positive nuclei fraction (RVH-421): 137%
- cleaved PARP positive nuclei fraction (SkMel28): 81.9%
- cleaved PARP positive nuclei fraction (SkMel2): 98.7%
- cleaved PARP positive nuclei fraction (SkMel30): 237%
- cleaved PARP positive nuclei fraction (UACC62): 135%
- cleaved PARP positive nuclei fraction (WM115): 135%
- cleaved PARP positive nuclei fraction (WM1716): 71.7%
- cleaved PARP positive nuclei fraction (WM1745): 254%
- cleaved PARP positive nuclei fraction (WM3526): 37.5%
- cleaved PARP positive nuclei fraction (WM3619): 97.5%
- cleaved PARP positive nuclei fraction (WM451Lu): 112%

SMILES: O=C(Nc1cc(C(F)(F)F)cc(C(F)(F)F)c1)c1cc(Cl)ccc1O + Cn1sc(=O)n(Cc2ccccc2)c1=O [TDZD-8] (first compound 0.016 µM, partner dose 0.4 µM)
- cleaved PARP positive nuclei fraction (MZ2-MEL): 88.4%
- cleaved PARP positive nuclei fraction (MeWo): 64.7%
- cleaved PARP positive nuclei fraction (RPMI7951): 71%
- cleaved PARP positive nuclei fraction (RVH-421): 43.7%
- cleaved PARP positive nuclei fraction (SkMel28): 131%
- cleaved PARP positive nuclei fraction (SkMel2): 159%
- cleaved PARP positive nuclei fraction (SkMel30): 18.9%
- cleaved PARP positive nuclei fraction (UACC62): 23.2%
- cleaved PARP positive nuclei fraction (WM115): 123%
- cleaved PARP positive nuclei fraction (WM1716): 206%
- cleaved PARP positive nuclei fraction (WM1745): 104%
- cleaved PARP positive nuclei fraction (WM3526): 38.2%
- cleaved PARP positive nuclei fraction (WM3619): 92.5%
- cleaved PARP positive nuclei fraction (WM451Lu): 82.9%

From the supplement of paper PMC4604168 (melanoma cell lines)
